According to PubChem BioAssay AID290 (DTP/NCI, 2004):
The list shows only some results of the screen, not a fair sample: it is rich in T/C values a quarter to a half above the control, in often repeated tests (any T/C) and in doses without a T/C. Other doses and runs of a compound stand elsewhere. T/C is the treated group as % of the vehicle group. Schedule codes are those of the source, taken here to give the interval after Q, in days (D) or hours (H), and the number of doses after X. Some doses have a count of surviving animals in place of a T/C: the source files T/C as zero there, which appears to mark a toxic dose or a test without result, not a measured value. Some survivor counts are full or nearly so, which does not show that the dose was tolerated: the source hardly ever lists a survival T/C far under the control, and the zero likely stands for such cases as well. Counts of survivors are from the toxicity check (mostly the fifth day) where no day follows; animals may have died later. Some entries hold several experiments; the results are listed from low to high.

Test system: mice, P1798 lymphosarcoma sc, survival or tumor weight T/C
Assay: NCI In Vivo Anticancer Drug Screen. Data for tumor model P1798 Lymphosarcoma (subcutaneous) in unknown mice
Experimental: The antitumor activity of compounds was measured in mice bearing transplantable tumors. Survival or tumor size were measured and the results are expressed as the measurement made in the treated group (T) divided by the measurement made in the vehicle treated control group (C). The tumor model used in this assay is P1798 Lymphosarcoma (subcutaneous) in unknown mice

N[C@@H](Cc1ccc(N(CCCl)CCCl)cc1)C(=O)O
survivor count (T/C endpoint: mean tumor weight, dose: 8.0 mg/kg/injection, schedule: Q01DX011 (ip), vehicle: carboxymethylcellulose (CMC), higher T/C = larger tumour): 0 of 10
survivor count (T/C endpoint: mean tumor weight, dose: 12.0 mg/kg/injection, schedule: Q01DX011 (ip), vehicle: carboxymethylcellulose (CMC), higher T/C = larger tumour): 0 of 10
survivor count (T/C endpoint: median survival time, dose: 3.0 mg/kg/injection, schedule: Q01DX010 (sc), vehicle: saline, higher T/C = longer survival): 10 of 10
survivor count (T/C endpoint: median survival time, dose: 6.0 mg/kg/injection, schedule: Q01DX010 (sc), vehicle: saline, higher T/C = longer survival): 10 of 10
survivor count (T/C endpoint: median survival time, dose: 12.0 mg/kg/injection, schedule: Q01DX010 (sc), vehicle: saline, higher T/C = longer survival): 10 of 10

O=C(Nc1ccc(C2=NCCCN2)cc1)c1ccc(NC(=O)c2ccc(C3=NCCCN3)cc2)cc1
survivor count (T/C endpoint: mean tumor weight, dose: 16.0 mg/kg/injection, schedule: Q01DX010 (ip), vehicle: carboxymethylcellulose (CMC), higher T/C = larger tumour): 0 of 10

CCCSc1ncnc2nc[nH]c12
survivor count (T/C endpoint: mean tumor weight, dose: 62.5 mg/kg/injection, schedule: Q01DX010 (ip), vehicle: carboxymethylcellulose (CMC), higher T/C = larger tumour): 3 of 10
survivor count (T/C endpoint: mean tumor weight, dose: 250.0 mg/kg/injection, schedule: Q01DX010 (ip), vehicle: carboxymethylcellulose (CMC), higher T/C = larger tumour): 0 of 10 and 3 of 10
survivor count (T/C endpoint: mean tumor weight, dose: 500.0 mg/kg/injection, schedule: Q01DX010 (ip), vehicle: carboxymethylcellulose (CMC), higher T/C = larger tumour): 0 of 10

C[C@@H]1C[C@@H]([C@H](O)CC2CC(=O)NC(=O)C2)C(=O)[C@@H](C)C1
survivor count (T/C endpoint: mean survival time, dose: 12.5 mg/kg/injection, schedule: Q01DX010 (ip), vehicle: water, higher T/C = longer survival): 1 of 10
survivor count (T/C endpoint: mean survival time, dose: 25.0 mg/kg/injection, schedule: Q01DX010 (ip), vehicle: water, higher T/C = longer survival): 4 of 10
survivor count (T/C endpoint: mean survival time, dose: 50.0 mg/kg/injection, schedule: Q01DX010 (ip), vehicle: water, higher T/C = longer survival): 0 of 1
T/C (T/C endpoint: mean tumor weight, dose: 1.56 mg/kg/injection, schedule: Q01DX010 (ip), vehicle: water, evaluated on day 14, higher T/C = larger tumour): 139 % of control
survivor count (T/C endpoint: mean tumor weight, dose: 100.0 mg/kg/injection, schedule: Q01DX010 (ip), vehicle: water, higher T/C = larger tumour): 0 of 10

CC(CCC(C)OS(C)(=O)=O)OS(C)(=O)=O (stereo not drawn)
survivor count (T/C endpoint: mean tumor weight, dose: 80.0 mg/kg/injection, schedule: Q01DX010 (ip), vehicle: carboxymethylcellulose (CMC), higher T/C = larger tumour): 0 of 10

CC(C)(c1ccccc1)c1ccc(O)cc1
survivor count (T/C endpoint: mean tumor weight, dose: 400.0 mg/kg/injection, schedule: Q01DX010 (ip), vehicle: carboxymethylcellulose (CMC), higher T/C = larger tumour): 4 of 10

Nc1nc(=S)c2[nH]cnc2[nH]1
survivor count (T/C endpoint: mean tumor weight, dose: 1.0 mg/kg/injection, schedule: Q01DX010 (ip), vehicle: carboxymethylcellulose (CMC), higher T/C = larger tumour): 1 of 10
survivor count (T/C endpoint: mean tumor weight, dose: 2.0 mg/kg/injection, schedule: Q01DX010 (ip), vehicle: carboxymethylcellulose (CMC), higher T/C = larger tumour): 0 of 10
